PubChem BioAssay AID1159584, Peter MacCallum Cancer Centre, 2016
Purpose: 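Genes that CDH1-null MCF10A cells selectively depend on to survive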 (primary screen). Cells: human MCF10A breast epithelial cells, parental and CDH1-null. Reagents: siRNA against human genes. Measured: 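Cell viability by CellTiter-Glo ATP luminescence, each line scaled to the mean of mock wells across plates, then CDH1-null over parental ratio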. Direction: CDH1-null / parental viability ratio: higher = CDH1-null cells survive relatively better than parental.
The whole screen tested about 18,000 reagents; shown is a random part of them. Further read-outs or replicates are left out here. The record does not give: the amount of reagent, the time to read-out.

| gene knocked down | CDH1-null / parental viability ratio |
| --- | --- |
| IP6K1 (inositol hexakisphosphate kinase 1) | 1.05 |
| GDI1 (GDP dissociation inhibitor 1) | 1.18 |
| AKR7L (aldo-keto reductase family 7 like (gene/pseudogene)) | 1.18 |
| SMIM12 (small integral membrane protein 12) | 0.98 |
| TMEM89 (transmembrane protein 89) | 0.79 |
| MALL (mal, T cell differentiation protein like) | 1.1 |
| TCEA2 (transcription elongation factor A2) | 0.94 |
| TBC1D7 (TBC1 domain family member 7) | 1.16 |
| SALL1 (spalt like transcription factor 1) | 1.14 |
| PHF14 (PHD finger protein 14) | 0.92 |
| FBXO47 (F-box protein 47) | 1.11 |
| H1-1 (H1.1 linker histone, cluster member) | 0.91 |
| KRT17 (keratin 17) | 1.32 |
| SLC4A8 | 0.98 |
| KCNC1 (potassium voltage-gated channel subfamily C member 1) | 1.19 |
| TTC36 (tetratricopeptide repeat domain 36) | 0.88 |
| SH3D19 (SH3 domain containing 19) | 1.12 |
| NEK11 (NIMA related kinase 11) | 1.03 |
| DOP1B (DOP1 leucine zipper like protein B) | 1.03 |
| SI (sucrase-isomaltase) | 1.05 |
| ZBTB22 (zinc finger and BTB domain containing 22) | 1.02 |
| HNRNPA1 (heterogeneous nuclear ribonucleoprotein A1) | 1.07 |
| ATP6V0D1 (ATPase H+ transporting V0 subunit d1) | 0.97 |
| LINC00174 (long independently transcribed non-coding RNA 174) | 1.31 |
| GOLGA2 (golgin A2) | 0.97 |
| SIPA1L3 (signal induced proliferation associated 1 like 3) | 0.71 |
| CLCC1 (chloride channel CLIC like 1) | 1.11 |
| TMEM43 (transmembrane protein 43) | 0.54 |
| SCN9A (sodium voltage-gated channel alpha subunit 9) | 1.11 |
| PFKP (phosphofructokinase, platelet) | 0.89 |
| ATP11A (ATPase phospholipid transporting 11A) | 1.06 |
| LGR5 (leucine rich repeat containing G protein-coupled receptor 5) | 1.41 |
| NKRF (NFKB repressing factor) | 0.9 |
| SENP8 (SUMO peptidase family member, NEDD8 specific) | 1.12 |
| MAP1LC3C (microtubule associated protein 1 light chain 3 gamma) | 1.01 |
| UBL4B (ubiquitin like 4B) | 0.84 |
| OPRPN (opiorphin prepropeptide) | 0.84 |
| ACP5 (acid phosphatase 5, tartrate resistant) | 1.35 |
| PEX14 (peroxisomal biogenesis factor 14) | 1.24 |
| PLS3 (plastin 3) | 1.14 |
| LRRK2 (leucine rich repeat kinase 2) | 1.06 |
| NHLH2 (nescient helix-loop-helix 2) | 1.03 |
| IQCF3 (IQ motif containing F3) | 1.06 |
| PLPP4 (phospholipid phosphatase 4) | 1.28 |
| TRMT61A (tRNA methyltransferase 61A) | 1.13 |
| SEMA3C (semaphorin 3C) | 1.37 |
| MYBPC2 (myosin binding protein C2) | 1.2 |
| KCNA6 (potassium voltage-gated channel subfamily A member 6) | 1.5 |
| CFAP77 (cilia and flagella associated protein 77) | 0.97 |
| EZR (ezrin) | 0.87 |
| MCM10 (minichromosome maintenance 10 replication initiation factor) | 0.9 |
| SNCB (synuclein beta) | 0.96 |
| RPL36A (ribosomal protein L36a) | 0.92 |
| GTF3C6 (general transcription factor IIIC subunit 6) | 1.01 |
| IBA57 (iron-sulfur cluster assembly factor IBA57) | 1.02 |
| PRR25 (proline rich 25) | 0.84 |
| SLC5A1 | 0.92 |
| CFAP221 (cilia and flagella associated protein 221) | 0.76 |
| COG4 (component of oligomeric golgi complex 4) | 0.81 |
| DUOX1 (dual oxidase 1) | 0.97 |
| RPS27A (ribosomal protein S27a) | 1.82 |
| LMBRD1 (LMBR1 domain containing 1) | 0.94 |
| GIMAP7 (GTPase, IMAP family member 7) | 0.85 |
| H2BC10 (H2B clustered histone 10) | 1.17 |
| C1QL2 (complement C1q like 2) | 1.02 |
| MIB1 (MIB E3 ubiquitin protein ligase 1) | 1.25 |
| SLC6A12 | 0.88 |
| TXNDC11 (thioredoxin domain containing 11) | 0.87 |

7 entries already listed, sorted by “CDH1-null / parental viability ratio”, high to low:
| gene knocked down | CDH1-null / parental viability ratio |
| --- | --- |
| RPS27A (ribosomal protein S27a) | 1.82 |
| MIB1 (MIB E3 ubiquitin protein ligase 1) | 1.25 |
| H2BC10 (H2B clustered histone 10) | 1.17 |
| C1QL2 (complement C1q like 2) | 1.02 |
| LMBRD1 (LMBR1 domain containing 1) | 0.94 |
| SLC6A12 | 0.88 |
| GIMAP7 (GTPase, IMAP family member 7) | 0.85 |
